# Measurements reported in PubChem BioAssay AID1159584 (Peter MacCallum Cancer Centre, 2016)
# Assay: 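Genes whose loss is lethal only together with E-cadherin loss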 (primary screen)
# Cells: human MCF10A breast epithelial cells, parental and CDH1-null
# Knock-down reagent: siRNA against human genes
# Measurement: 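ATP luminescence (CellTiter-Glo) viability per line relative to mean mock wells over all plates, and the ratio of CDH1-null to parental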
# Reading the numbers: CDH1-null / parental viability ratio: higher = CDH1-null cells survive relatively better than parental; CDH1-null viability vs mock: higher = more viable CDH1-null cells; parental viability vs mock: higher = more viable parental cells
# Shown is a random part of about 18,000 reagents. Not stated in the record: the amount of reagent, the time to read-out.
gene knocked down,CDH1-null / parental viability ratio,CDH1-null viability vs mock (fraction of mock),parental viability vs mock (fraction of mock)
H3-3A (H3.3 histone A),1.24,0.87,0.7
"KPTN (kaptin, actin binding protein)",1.1,0.97,0.88
IL18BP (interleukin 18 binding protein),1.31,0.38,0.29
TEAD1 (TEA domain transcription factor 1),1.05,0.64,0.61
HS6ST2 (heparan sulfate 6-O-sulfotransferase 2),1.02,1.19,1.17
RPL26L1 (ribosomal protein L26 like 1),1.81,1.12,0.62
SLC71A2,0.99,0.74,0.75
SMAGP (small cell adhesion glycoprotein),1,0.82,0.82
CHODL (chondrolectin),1.19,0.57,0.48
"PCDHGA10 (protocadherin gamma subfamily A, 10)",1.4,0.8,0.57
PAX1 (paired box 1),0.99,0.91,0.92
P2RX3 (purinergic receptor P2X 3),1.33,1.17,0.88
ANKRD26 (ankyrin repeat domain 26),1.06,0.85,0.8
MRPS24 (mitochondrial ribosomal protein S24),1.38,0.99,0.72
RET (ret proto-oncogene),0.98,0.84,0.86
OR6S1 (olfactory receptor family 6 subfamily S member 1),1.05,1.12,1.07
RPL27 (ribosomal protein L27),1.45,0.29,0.2
CYP2D6,0.78,0.68,0.87
TRIL (TLR4 interactor with leucine rich repeats),0.8,0.78,0.97
SNRPF (small nuclear ribonucleoprotein polypeptide F),1.34,0.43,0.32
SENP5 (SUMO specific peptidase 5),1.12,0.94,0.84
H2BC21 (H2B clustered histone 21),1.27,1.09,0.86
TPRKB (TP53RK binding protein),0.95,0.95,1
IL18R1 (interleukin 18 receptor 1),0.78,0.72,0.92
"SUPT20H (SPT20 homolog, SAGA complex component)",1.19,0.57,0.48
LTN1 (listerin E3 ubiquitin protein ligase 1),0.93,0.97,1.04
FER1L5 (fer-1 like family member 5),1.04,0.76,0.73
GGTLC2 (gamma-glutamyltransferase light chain 2),1,0.4,0.4
